Structures can show the parent of a compound that is named as a salt. This is one part of the list. The calls rarely recur for the same compound in another form.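 Kinases were expressed as nanoluciferase fusions in K562 cells and luminescence was read every 4 h between 2 and 18 h as percent of control, DMSO set to 100% and a positive control to 0%. A time point counts as decreased when the signal drops significantly (2 sigma). The hit call is the authors' own, does not follow from the count of time points alone, and its rule is not shown.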
Each compound was assayed against PLK1 (UniProt P53350) (assay: kinase-Nluc reporter destabilization hit call (1 = scored as downregulated) (binary); higher = compound decreases kinase abundance). Settings: K562; 2-18 h.

The chains behind the UniProt entries cited, without tags or fusion partners. Where a name states a change or a piece, a line headed by the entry shows the natural chain unless it says otherwise.
UniProt P53350, whole entry: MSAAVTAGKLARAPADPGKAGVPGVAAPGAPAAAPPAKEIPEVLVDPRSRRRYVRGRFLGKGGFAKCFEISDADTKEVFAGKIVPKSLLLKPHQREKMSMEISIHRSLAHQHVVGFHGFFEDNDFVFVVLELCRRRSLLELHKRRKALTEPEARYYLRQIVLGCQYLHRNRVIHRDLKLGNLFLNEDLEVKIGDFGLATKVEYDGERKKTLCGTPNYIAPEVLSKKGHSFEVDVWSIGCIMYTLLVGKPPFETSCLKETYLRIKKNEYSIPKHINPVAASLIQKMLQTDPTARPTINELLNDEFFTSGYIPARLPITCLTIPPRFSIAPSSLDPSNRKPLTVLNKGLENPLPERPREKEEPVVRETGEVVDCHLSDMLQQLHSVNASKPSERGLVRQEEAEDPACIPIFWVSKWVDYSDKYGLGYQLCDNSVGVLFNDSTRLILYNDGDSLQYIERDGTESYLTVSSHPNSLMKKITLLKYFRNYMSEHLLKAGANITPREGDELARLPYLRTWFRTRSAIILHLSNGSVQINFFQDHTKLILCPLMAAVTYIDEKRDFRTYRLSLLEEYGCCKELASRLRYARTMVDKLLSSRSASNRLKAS
UniProt Q13131: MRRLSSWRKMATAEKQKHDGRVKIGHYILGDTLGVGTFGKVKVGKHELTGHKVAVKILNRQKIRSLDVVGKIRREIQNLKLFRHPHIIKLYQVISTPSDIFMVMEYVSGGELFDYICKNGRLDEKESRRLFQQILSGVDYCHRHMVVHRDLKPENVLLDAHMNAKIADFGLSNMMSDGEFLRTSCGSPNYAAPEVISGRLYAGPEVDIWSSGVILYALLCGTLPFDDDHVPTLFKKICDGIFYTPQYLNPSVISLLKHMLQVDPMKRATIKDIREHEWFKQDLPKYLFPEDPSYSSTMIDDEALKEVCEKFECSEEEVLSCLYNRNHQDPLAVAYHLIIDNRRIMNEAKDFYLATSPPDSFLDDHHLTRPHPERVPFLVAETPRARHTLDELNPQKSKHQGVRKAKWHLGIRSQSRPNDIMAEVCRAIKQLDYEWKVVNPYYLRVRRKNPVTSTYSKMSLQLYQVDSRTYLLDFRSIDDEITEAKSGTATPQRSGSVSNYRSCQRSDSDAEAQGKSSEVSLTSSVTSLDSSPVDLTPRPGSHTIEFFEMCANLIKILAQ

Q: Which “kinase-Nluc reporter destabilization hit call” value does the source give for `Cc1cccc(-c2[nH]c(C(C)(C)C)nc2-c2ccc3c(c2)OCO3)n1` (2.5 µM) here?
A: inactive: 0

Q: For `Cc1cccc(Cn2nc(C)c3c(NC(=O)c4csc5c(N)ncnc45)cccc32)n1` (10 µM), which “kinase-Nluc reporter destabilization hit call” value is on record?
A: inactive: 0

Q: With `CC[C@@H]1CN(C(=O)NCC(F)(F)F)C[C@@H]1c1cnc2cnc3[nH]ccc3n12` [Upadacitinib] (10 µM) as the compound, how does the “kinase-Nluc reporter destabilization hit call” value read?
A: inactive: 0

Q: With `CNS(=O)(=O)C[C@H]1CC[C@H](N(C)c2[nH]cnc3nccc2-3)CC1` [Oclacitinib (maleate)] (10 µM) as the compound, how does the “kinase-Nluc reporter destabilization hit call” value read?
A: inactive: 0

Q: `COc1cc(-c2cnc(N)c(-c3ccc(NC(=O)c4cn(CC5CCOCC5)cc(-c5ccc(C)cn5)c4=O)cc3F)c2)ccc1OC[C@H]1COCCO1` [DS-1205b (free base)] (10 µM) was tested. Which “kinase-Nluc reporter destabilization hit call” value did it give?
A: inactive: 0

Each compound was assayed against PRKAA1 (UniProt Q13131) in the same assay as above. Settings: K562; 2-18 h.

Q: How did the “kinase-Nluc reporter destabilization hit call” value turn out when `C=CC(=O)N1CCC[C@@H](n2c(=O)n(-c3ccc(Oc4ccccc4)cc3)c3c(N)nccc32)C1` [Tolebrutinib] (10 µM) was run?
A: inactive: 0

Q: `C[C@]1(O)C[C@@](N)(c2ccc(-c3nc4n(c3-c3ccccc3)COc3ccncc3-4)cc2)C1` [TAS-117 (hydrochloride)] (10 µM) was tested. Which “kinase-Nluc reporter destabilization hit call” value did it give?
A: inactive: 0

Q: With `CCOC(=O)C1=C[C@]2(CC)CCCN3CCc4c(n1c1ccccc41)[C@@H]32` [Vinpocetine] (10 µM) as the compound, how does the “kinase-Nluc reporter destabilization hit call” value read?
A: inactive: 0

Q: With `CC(C)(C)NS(=O)(=O)c1cncc(-c2cc(F)c3nc(N)nn3c2)c1` (10 µM) as the compound, how does the “kinase-Nluc reporter destabilization hit call” value read?
A: inactive: 0

Q: `CC(C)(C)c1ccc(C(=O)Nc2cn3cc(-n4ccnc4)ccc3n2)cc1` (10 µM) was tested. Which “kinase-Nluc reporter destabilization hit call” value did it give?
A: inactive: 0

Q: How did the “kinase-Nluc reporter destabilization hit call” value turn out when `Cc1nc(NC(=O)N2CCC[C@H]2C(N)=O)sc1-c1csc(C(C)(C)C)n1` (10 µM) was run?
A: inactive: 0

Q: How did the “kinase-Nluc reporter destabilization hit call” value turn out when `N#Cc1cn([C@@H]2O[C@H](CO)[C@@H](O)[C@H]2O)c2nc[nH]c(=O)c12` [Jaspamycin] (10 µM) was run?
A: inactive: 0

Q: Which “kinase-Nluc reporter destabilization hit call” value does the source give for `Cc1ccc(-c2csc(Cn3nc(CC4OCCCO4)c4ccccc4c3=O)n2)cc1` (10 µM) here?
A: inactive: 0

Q: With `CNC(=O)c1c(C)oc2cc(Oc3ncnc4cc(OC)c(OC)cc34)ccc12` [Fruquintinib] (10 µM) as the compound, how does the “kinase-Nluc reporter destabilization hit call” value read?
A: inactive: 0

Q: With `O=S(=O)(N=Cc1c(O)ccc2ccccc12)c1cccs1` (10 µM) as the compound, how does the “kinase-Nluc reporter destabilization hit call” value read?
A: inactive: 0

Q: Which “kinase-Nluc reporter destabilization hit call” value does the source give for `NC(=O)c1cccc2c(N[C@H](CN3CCC3)c3ccc(Cl)c(C(F)(F)F)c3)ncnc12` (10 µM) here?
A: inactive: 0

Q: For `CN1CCC(c2ccccc2CC(C)(C)Nc2nc(N3CCOCC3)nc(-n3c(S(C)(=O)=O)nc4ccccc43)n2)CC1` (10 µM), which “kinase-Nluc reporter destabilization hit call” value is on record?
A: inactive: 0

Q: With `O=c1ccc2cc(O)c(O)cc2o1` [Esculetin] (10 µM) as the compound, how does the “kinase-Nluc reporter destabilization hit call” value read?
A: inactive: 0

Q: Which “kinase-Nluc reporter destabilization hit call” value does the source give for `O=C(Nc1nc2cccc(-c3ccc(CN4CCS(=O)(=O)CC4)cc3)n2n1)C1CC1` [Filgotinib] (2.5 µM) here?
A: inactive: 0

Q: `CC(C)(O)c1cc2nc(-c3cnc(N)nc3)nc(N3CCOCC3)c2s1` (2.5 µM) was tested. Which “kinase-Nluc reporter destabilization hit call” value did it give?
A: inactive: 0

Q: For `Cn1cc(-c2ccc3ncc(Cc4ccc5ncccc5c4)n3n2)cn1` (10 µM), which “kinase-Nluc reporter destabilization hit call” value is on record?
A: inactive: 0

Q: With `CC(=O)c1cc(O)ccc1O` [2,5-Dihydroxyacetophenone] (10 µM) as the compound, how does the “kinase-Nluc reporter destabilization hit call” value read?
A: inactive: 0

Q: How did the “kinase-Nluc reporter destabilization hit call” value turn out when `COc1ccc(COc2cc3oc(=O)c4cc(C(C)O)ccc4c3cc2OC)cc1` (stereo not drawn) [Palomid 529] (2.5 µM) was run?
A: inactive: 0

Q: With `O=C(CC(c1ccccc1)C(C(=O)O)C(=O)O)c1ccc(C(F)(F)F)cc1` (stereo not drawn) (10 µM) as the compound, how does the “kinase-Nluc reporter destabilization hit call” value read?
A: inactive: 0

Q: For `CC(C)[C@H](CO)Nc1nc(Nc2ccc(C(=O)O)c(Cl)c2)c2ncn(C(C)C)c2n1` [Purvalanol B] (10 µM), which “kinase-Nluc reporter destabilization hit call” value is on record?
A: inactive: 0

Q: `COc1cc2nccc(Oc3ccc(NC(=O)Nc4ccc(F)cc4F)c(F)c3)c2cc1OC` (10 µM) was tested. Which “kinase-Nluc reporter destabilization hit call” value did it give?
A: inactive: 0

Q: For `N#C/C(=C\c1ccc[nH]1)c1ccc(Cl)c(Cl)c1` (2.5 µM), which “kinase-Nluc reporter destabilization hit call” value is on record?
A: inactive: 0

Q: With `O=c1cc(-c2ccc(O)cc2)oc2cc(O)c(O)c(O)c12` [Scutellarein] (10 µM) as the compound, how does the “kinase-Nluc reporter destabilization hit call” value read?
A: inactive: 0

Q: `CC(C)n1nc(C#Cc2ccccc2)c2c(N)ncnc21` (10 µM) was tested. Which “kinase-Nluc reporter destabilization hit call” value did it give?
A: inactive: 0

Q: With `O=C(N=c1sccn1Cc1ccccc1)c1c[nH]c2ncccc12` (10 µM) as the compound, how does the “kinase-Nluc reporter destabilization hit call” value read?
A: inactive: 0

Q: For `CC(C)=C/C=C1\O[C@@H]2CC(C)=CC(=O)[C@@H]2[C@]1(C)O` [Bisabolangelone] (10 µM), which “kinase-Nluc reporter destabilization hit call” value is on record?
A: inactive: 0

Q: Which “kinase-Nluc reporter destabilization hit call” value does the source give for `COc1ccc(C2CC(c3ccc(Cl)cc3)=NN2c2nc(-c3ccncc3)cs2)cc1` (stereo not drawn) [mTOR inhibitor-8] (10 µM) here?
A: inactive: 0

Q: `Cc1cc(F)c(Nc2ncnc3cc(OCc4ccccc4)ccc23)cc1O` (10 µM) was tested. Which “kinase-Nluc reporter destabilization hit call” value did it give?
A: inactive: 0

Q: How did the “kinase-Nluc reporter destabilization hit call” value turn out when `CNCCOc1ccccc1C(C)(C)Nc1nccn(-c2cc(C(=O)NC3CC3)ccc2C)c1=O` [p38α inhibitor 2] (10 µM) was run?
A: inactive: 0

Q: Which “kinase-Nluc reporter destabilization hit call” value does the source give for `CCn1c(-c2nonc2N)nc2c(C#CCO)ncc(OCCCN)c21` [AKT Kinase Inhibitor] (10 µM) here?
A: inactive: 0

Q: How did the “kinase-Nluc reporter destabilization hit call” value turn out when `NC(=O)c1nc(-c2c(F)cccc2Cl)oc1Nc1ccc(C(=O)N2CCOCC2)cc1` (10 µM) was run?
A: inactive: 0

Q: How did the “kinase-Nluc reporter destabilization hit call” value turn out when `O=C(NCc1cccc(O)c1)c1cc2cc(F)ccc2[nH]1` (10 µM) was run?
A: inactive: 0

Q: For `Cc1nc(Nc2ncc(C(=O)Nc3c(C)cccc3Cl)s2)cc(N2CCN(C(=O)CCCCCCC(=O)N[C@H](C(=O)N3C[C@H](O)C[C@H]3C(=O)NCc3ccc(-c4scnc4C)cc3)C(C)(C)C)CC2)n1` (2.5 µM), which “kinase-Nluc reporter destabilization hit call” value is on record?
A: inactive: 0

Q: For `Cc1cccc(-c2[nH]c(C(C)(C)C)nc2-c2ccc3c(c2)OCO3)n1` (2.5 µM), which “kinase-Nluc reporter destabilization hit call” value is on record?
A: inactive: 0

Q: `Cc1cccc(Cn2nc(C)c3c(NC(=O)c4csc5c(N)ncnc45)cccc32)n1` (10 µM) was tested. Which “kinase-Nluc reporter destabilization hit call” value did it give?
A: inactive: 0

Q: With `CC[C@@H]1CN(C(=O)NCC(F)(F)F)C[C@@H]1c1cnc2cnc3[nH]ccc3n12` [Upadacitinib] (10 µM) as the compound, how does the “kinase-Nluc reporter destabilization hit call” value read?
A: inactive: 0

Q: How did the “kinase-Nluc reporter destabilization hit call” value turn out when `CNS(=O)(=O)C[C@H]1CC[C@H](N(C)c2[nH]cnc3nccc2-3)CC1` [Oclacitinib (maleate)] (10 µM) was run?
A: inactive: 0

Q: For `COc1cc(-c2cnc(N)c(-c3ccc(NC(=O)c4cn(CC5CCOCC5)cc(-c5ccc(C)cn5)c4=O)cc3F)c2)ccc1OC[C@H]1COCCO1` [DS-1205b (free base)] (10 µM), which “kinase-Nluc reporter destabilization hit call” value is on record?
A: inactive: 0

Source: the supplement of paper PMC12823440, “Inhibitors supercharge kinase turnover through native proteolytic circuits” (Nature, 2025)
